Experimental data from article PMC4991853.

By UniProt entry, the sequences of proteins in these tests, tags left out. Where a name states a change or a piece, a line headed by the entry shows the natural chain unless it says otherwise.
UniProt O35343: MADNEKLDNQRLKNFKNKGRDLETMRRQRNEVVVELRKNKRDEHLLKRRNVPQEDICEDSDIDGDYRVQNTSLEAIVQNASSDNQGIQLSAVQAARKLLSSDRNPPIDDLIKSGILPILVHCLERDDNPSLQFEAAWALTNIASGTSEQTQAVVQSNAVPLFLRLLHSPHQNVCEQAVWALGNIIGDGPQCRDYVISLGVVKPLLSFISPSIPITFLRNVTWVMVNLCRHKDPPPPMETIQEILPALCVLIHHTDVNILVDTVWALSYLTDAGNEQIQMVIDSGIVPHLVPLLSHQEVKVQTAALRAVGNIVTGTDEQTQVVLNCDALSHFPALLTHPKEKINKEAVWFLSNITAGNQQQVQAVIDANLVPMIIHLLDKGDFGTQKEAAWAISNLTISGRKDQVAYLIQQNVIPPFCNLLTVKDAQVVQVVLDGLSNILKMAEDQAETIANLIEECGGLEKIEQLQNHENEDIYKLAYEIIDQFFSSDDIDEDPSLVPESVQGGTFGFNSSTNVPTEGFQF
UniProt O35344: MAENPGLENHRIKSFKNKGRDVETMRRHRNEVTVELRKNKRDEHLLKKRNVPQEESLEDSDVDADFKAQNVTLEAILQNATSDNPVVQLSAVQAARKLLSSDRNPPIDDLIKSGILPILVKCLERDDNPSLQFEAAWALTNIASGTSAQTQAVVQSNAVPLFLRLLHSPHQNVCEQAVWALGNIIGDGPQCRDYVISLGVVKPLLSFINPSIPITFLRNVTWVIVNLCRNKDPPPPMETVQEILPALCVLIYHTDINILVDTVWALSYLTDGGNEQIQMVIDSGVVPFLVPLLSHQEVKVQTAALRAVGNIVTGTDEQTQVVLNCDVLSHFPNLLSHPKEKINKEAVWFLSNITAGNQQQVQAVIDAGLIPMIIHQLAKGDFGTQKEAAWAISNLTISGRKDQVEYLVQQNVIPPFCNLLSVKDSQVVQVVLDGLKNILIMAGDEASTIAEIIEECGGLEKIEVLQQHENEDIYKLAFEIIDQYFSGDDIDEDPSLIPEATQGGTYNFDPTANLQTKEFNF
UniProt Q60960: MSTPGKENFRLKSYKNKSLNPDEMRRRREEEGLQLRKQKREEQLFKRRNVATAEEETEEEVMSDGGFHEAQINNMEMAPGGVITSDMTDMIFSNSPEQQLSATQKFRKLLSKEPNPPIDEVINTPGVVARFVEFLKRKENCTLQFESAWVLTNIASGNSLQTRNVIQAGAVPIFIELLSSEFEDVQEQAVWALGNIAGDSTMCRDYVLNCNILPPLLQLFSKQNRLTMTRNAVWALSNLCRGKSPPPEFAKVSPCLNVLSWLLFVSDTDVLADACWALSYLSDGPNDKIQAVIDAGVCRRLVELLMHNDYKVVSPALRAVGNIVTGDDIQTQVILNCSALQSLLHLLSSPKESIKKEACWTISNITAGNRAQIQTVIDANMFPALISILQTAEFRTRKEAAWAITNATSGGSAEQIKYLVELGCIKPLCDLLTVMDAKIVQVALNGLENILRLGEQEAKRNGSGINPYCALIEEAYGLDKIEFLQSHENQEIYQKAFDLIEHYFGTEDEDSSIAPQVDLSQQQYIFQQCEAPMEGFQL

target: GST-tagged HNF1β DNA binding domain (human) (UniProt P35680); test: pull-down; crude E. coli extracts of GST-tagged HNF1β^DBD and ΔIBB Importin-α mixed, bound to glutathione resin, washed, eluted by TEV cleavage between GST and HNF1β^DBD; SDS-PAGE

Substance	binding
ΔIBB-mImportin-α3 (from UniProt O35343) (domain or fragment)	binds weakly
ΔIBB-mImportin-α7 (from UniProt O35345) (domain or fragment)	binds weakly
ΔIBB-mImportin-α4 (from UniProt O35344) (domain or fragment)	binds weakly
ΔIBB-mImportin-α5 (from UniProt Q60960) (domain or fragment)	binds

Results are given in words; binding and its absence hold for the method and conditions named. Binding seen in cells or lysates may run through a third protein. A result given as binding can be weak or reduced; the word gives no strength.
